The source of these data is patent US10004762B2, “Dialysis formulation” (Gambro Lundia AB, priority 2013, dated 2018).

The nature of this data set: Acute inflammation: plasma PTX-3 by Human Pentraxin 3/TSG-14 Quantikine ELISA. The data set is classed as in vivo. Background: ELISA stands for enzyme-linked immunosorbent assay.

Turning to “PTX-3: acute phase protein Pentraxin 3, marker for acute inflammation”, where the note is “HD patients post-dialysis vs controls”, the “post-dialysis values relative to controls” value was 4 times. Besides, where the note is “all HD patients”, the “P1 pre-dialysis plasma concentration ± SEM” value came to 1.8 ± 0.2 ng/mL and the “P2 post-dialysis plasma concentration ± SEM” value amounted to 3.3 ± 0.4 ng/mL. Also, where the note is “healthy controls”, the “plasma concentration, controls” value was found to be 0.7 ± 0.02 ng/mL.
